PubChem BioAssay AID652272 | Drosophila RNAi Screening Center – 2013
Aim: 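Genome-wide knock-down search for components of Hedgehog signalling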 (primary screen). Cells: Drosophila clone 8 (Cl8) cells. Reagent: long dsRNA against Drosophila genes. Detection: 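Firefly light from a Hedgehog-responsive ptc promoter reporter and Renilla reference light, both read on a plate reader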. Direction: firefly Hh reporter signal: higher = more ptc reporter light; Renilla reference signal: higher = more Renilla control light. Hit rule: 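Hit when the z-score averaged over two replicates is under -2 or over +3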. Meaning of the calls: active = hit: reporter lowered or raised; inactive = not a hit.
In all, the deposit lists about 21,000 reagents; below is an unselected part of those that have a named target and a result. In the full data, 503 (2.4%) got an active call. 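Raw plate light values, not normalised; calls rest on replicate z-scores that were not deposited; hits include reporter decreases as well as increases.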 Reagents against one gene are numbered here. Names joined by + are all predicted targets of the reagent. Not stated in the record: the amount of reagent, the time to read-out.

Silencing of Or67c resulted in: firefly Hh reporter signal, replicate 1 = 77787; firefly Hh reporter signal, replicate 2 = 60604; firefly Hh reporter signal, replicate 3 = 51194; Renilla reference signal, replicate 1 = 4807; Renilla reference signal, replicate 2 = 3907; inactive.
With knock-down of CG16736, the screen gave firefly Hh reporter signal, replicate 1 = 83629; firefly Hh reporter signal, replicate 2 = 88209; Renilla reference signal, replicate 1 = 3085; Renilla reference signal, replicate 2 = 2557; inactive.
CG34227 #1 gave firefly Hh reporter signal, replicate 1 = 1.06e5; firefly Hh reporter signal, replicate 2 = 49673; Renilla reference signal, replicate 1 = 2517; Renilla reference signal, replicate 2 = 3520; inactive.
Silencing of CG34227 #2 gave: firefly Hh reporter signal, replicate 1 = 1.01e5; firefly Hh reporter signal, replicate 2 = 62451; Renilla reference signal, replicate 1 = 2770; Renilla reference signal, replicate 2 = 4914; inactive.
Silencing of asRNA:CR43430 + hts gave: firefly Hh reporter signal, replicate 1 = 77541; firefly Hh reporter signal, replicate 2 = 53793; Renilla reference signal, replicate 1 = 2294; Renilla reference signal, replicate 2 = 4153; inactive.
With knock-down of BORCS5 the results were firefly Hh reporter signal, replicate 1 = 1.38e5; firefly Hh reporter signal, replicate 2 = 99584; Renilla reference signal, replicate 1 = 3062; Renilla reference signal, replicate 2 = 2109; inactive.
With knock-down of Golgin97, the record shows firefly Hh reporter signal, replicate 1 = 1.06e5; firefly Hh reporter signal, replicate 2 = 79789; Renilla reference signal, replicate 1 = 3770; Renilla reference signal, replicate 2 = 3098; inactive.

Taken from above.
Under “activity call”, Golgin97 reads inactive
Value of CG34227 #1 in “Renilla reference signal, replicate 1”: 2517

Next entries follow:
CG13312 showed firefly Hh reporter signal, replicate 1 = 59648; firefly Hh reporter signal, replicate 2 = 78226; Renilla reference signal, replicate 1 = 7149; Renilla reference signal, replicate 2 = 4565; inactive.
With knock-down of CG13670 the results were firefly Hh reporter signal, replicate 1 = 56224; firefly Hh reporter signal, replicate 2 = 50984; Renilla reference signal, replicate 1 = 4378; Renilla reference signal, replicate 2 = 3594; inactive.
With knock-down of Ilp7, the record shows firefly Hh reporter signal, replicate 1 = 1.04e5; firefly Hh reporter signal, replicate 2 = 2.46e5; Renilla reference signal, replicate 1 = 2071; Renilla reference signal, replicate 2 = 10870; inactive.
mod(mdg4) #1 gave firefly Hh reporter signal, replicate 1 = 53584; firefly Hh reporter signal, replicate 2 = 2.16e5; Renilla reference signal, replicate 1 = 12084; Renilla reference signal, replicate 2 = 5344; inactive.
mod(mdg4) #2 scored firefly Hh reporter signal, replicate 1 = 46492; firefly Hh reporter signal, replicate 2 = 2.25e5; Renilla reference signal, replicate 1 = 10274; Renilla reference signal, replicate 2 = 5911; inactive.
With knock-down of mod(mdg4) #3, the record shows firefly Hh reporter signal, replicate 1 = 50016; firefly Hh reporter signal, replicate 2 = 1.34e5; Renilla reference signal, replicate 1 = 10368; Renilla reference signal, replicate 2 = 3213; inactive.
mod(mdg4) #4 gave firefly Hh reporter signal, replicate 1 = 44452; firefly Hh reporter signal, replicate 2 = 1.86e5; Renilla reference signal, replicate 1 = 10068; Renilla reference signal, replicate 2 = 4392; inactive.
Silencing of mod(mdg4) #5 resulted in: firefly Hh reporter signal, replicate 1 = 7.71e5; firefly Hh reporter signal, replicate 2 = 2.23e5; Renilla reference signal, replicate 1 = 44169; Renilla reference signal, replicate 2 = 5613; inactive.
mod(mdg4) #6 gave firefly Hh reporter signal, replicate 1 = 1.02e5; firefly Hh reporter signal, replicate 2 = 1.02e5; Renilla reference signal, replicate 1 = 4017; Renilla reference signal, replicate 2 = 4517; inactive.
Silencing of Pex23 #1 came out at: firefly Hh reporter signal, replicate 1 = 1.08e5; firefly Hh reporter signal, replicate 2 = 1.01e5; Renilla reference signal, replicate 1 = 3867; Renilla reference signal, replicate 2 = 3320; inactive.
Pex23 #2 showed firefly Hh reporter signal, replicate 1 = 76565; firefly Hh reporter signal, replicate 2 = 96272; Renilla reference signal, replicate 1 = 2620; Renilla reference signal, replicate 2 = 2730; inactive.
Knock-down of Cyp6v1 came out at: firefly Hh reporter signal, replicate 1 = 77440; firefly Hh reporter signal, replicate 2 = 1.51e5; Renilla reference signal, replicate 1 = 1403; Renilla reference signal, replicate 2 = 6858; inactive.
Against NHP2, the entry reads firefly Hh reporter signal, replicate 1 = 50941; Renilla reference signal, replicate 1 = 4080; Renilla reference signal, replicate 2 = 1846; inactive.
After knock-down of CG9590, the screen gave firefly Hh reporter signal, replicate 1 = 1.30e5; firefly Hh reporter signal, replicate 2 = 82460; Renilla reference signal, replicate 1 = 4189; Renilla reference signal, replicate 2 = 3360; inactive.
